Assay results taken from the supplement of paper PMC12067093, “Discovery and optimisation of a covalent ligand for TRIM25 and its application to targeted protein ubiquitination” (Chemical Science, 2025).
This is one part of the list.

Key:
[1] = target: PYCR1_P32322_95_HIVVSCAAGVTISSIEK (UniProt P32322); experiment: probe-labelled cysteine peptide fold change vs DMSO (competition) (log2 fold change); higher = less target engagement (more negative = stronger competition); settings: THP-1, incubation time: 4 h
[2] = target: PYCR2_Q96C36_95_HIVVSCAAGVTISSVEK (UniProt Q96C36); experiment: as above; settings: THP-1, incubation time: 4 h
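Further: competitive chemoproteomic profiling in live THP-1 cells with an iodoacetamide desthiobiotin (IA-DTB) probe, comparing probe-labelled peptide intensities in compound-treated cells against DMSO-treated controls.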

**Q.** With `CC1Cc2ccccc2N1C(=O)C1CCCN(C(=O)CCl)C1` (mixture of isomers) [TRIM25 ligand 11 (diastereomer mixture)] as the compound, how does the “probe-labelled cysteine peptide fold change” value ([1]; 10 µM) read?
**A.** 0.0152

**Q.** What about the “probe-labelled cysteine peptide fold change” value ([1]; 50 µM) of the same compound?
**A.** 0.0688

**Q.** What about the “probe-labelled cysteine peptide fold change” value ([2]; 10 µM) of the same compound?
**A.** 0.223

**Q.** And the “probe-labelled cysteine peptide fold change” value ([2]; 50 µM)?
**A.** 0.327
